Measurements: patent US20150315218A1, “SALTS OF PRODRUGS OF PIPERAZINE AND SUBSTITUTED PIPERIDINE ANTIVIRAL AGENTS” (Bristol-Myers Squibb Company, priority 2004, published 2015)
Counter-ions that a name gives are not always drawn. Some results were stated once for a whole list of compounds, not compound by compound.

Experiment: Single-dose oral toxicokinetic study of prodrugs in rats
Assay type: in vivo, rat
Conditions: single oral dose of prodrug
Description: A 1-day oral toxicokinetic study in rats was conducted using the prodrug Iab (monolysine salt). Iab was administered at dosages of 16, 72, and 267 mg/kg (free acid) by oral gavage to three male rats/group using water as the vehicle (solution formulation). The dosages of prodrug free acid correspond to IVa (parent) molar equivalent dosages of 13, 57, and 211 mg/kg, respectively. The endpoint evaluated was plasma toxicokinetics of Iab and IVa in the individual rats.
A 1-day oral toxicokinetic study in rats was conducted by using the prodrug Ibb (monolysine salt). Ibb was administered at dosages of 19, 64, and 236 mg/kg (free acid) by oral gavage to three male rats/group using water as the vehicle (solution formulation).
A 1-day oral toxicokinetic study in rats was conducted using the prodrug Icb (disodium salt). Icb was administered at dosages of 5, 25, and 200 mg/kg (free acid) by oral gavage to three male rats/group using water as the vehicle (solution formulation).

SMILES	time post-dose at which mean maximum plasma concentration (Cmax) was achieved [h]
COc1ncc(OC)c2c(C(=O)C(=O)N3CCN(C(=O)c4ccccc4)CC3)c[nH]c12 [IVa, N-(benzoyl)-N′-[(4,7-dimethoxy-6-azaindol-3-yl)-oxoacetyl]piperazine]	≤ 1.1
COc1cnc(OC)c2c1c(C(=O)C(=O)N1CCN(C(=O)c3ccccc3)CC1)cn2COP(=O)(O)O [Iab, {3-[(4-benzoylpiperazin-1-yl)(oxo)acetyl]-4,7-dimethoxy-1H-pyrrolo[2,3-c]pyridin-1-yl}methyl dihydrogen phosphate, L-lysine salt (1:1)]	≤ 1.1
